Data as given in paper PMC12040169 (PLOS Biology, 2025).
Some of the results follow.

What follows are molecules tested on T1, CTL2-GFP (C. trachomatis L2/434/Bu, GFP-expressing). Conditions: bulk GFP, single well; 28.5 h, 10 µM; inhibitor.
T1 construct: L2/434/Bu, GFP-expressing
Design: species or system HeLa; Intracellular C. trachomatis growth in HeLa cells, bulk GFP fluorescence relative to DMSO

| Compound | % of control remaining [%] |
| --- | --- |
| O=C(Nc1ccncc1)c1cc2cc(F)ccc2[nH]1 [CBK107346] | 100.246 |
| CC1(NC(=O)Cn2c(C(F)(F)F)nc3ccccc32)CCC1 [CBK281606] | 163.349 |
| CC(=O)Nc1cccc(NC(=O)CSc2ccc(C(F)(F)F)cc2[N+](=O)[O-])c1 [CBK264758] | 97.6487 |
| O=c1[nH]nc2c(S(=O)(=O)N3CCCC3)cccn12 [CBK288460] | 169.059 |
| Cc1ccc(CSc2nnc(-c3ccc(NC(=O)/C=C/c4ccccc4)cc3)n2C)cc1 [CBK263850] | 132.973 |
| CCN(C(=O)c1cn2c3c(cccc3c1=O)CC2)C1CCOC(C)(C)C1 (stereo not drawn) [CBK307332] | 124.109 |
| COc1ccccc1C(=O)Nc1ccccc1C(=O)Nc1ccc(C(=O)O)cc1 [CBK268625] | 158.52 |
| Cc1ccccc1N1CC(C(=O)Nc2cccnc2)CC1=O (stereo not drawn) [CBK288138] | 136.752 |
| COc1ccc(S(=O)(=O)N(CCc2ccccc2)CC(=O)O)cc1C [CBK268505] | 122.175 |
| Cn1cc(Nc2nc(-c3ccc(CCNS(C)(=O)=O)cc3)cs2)cn1 [CBK305065] | 112.233 |
| CC(CC(=O)N1CCC(c2cc3cccnc3[nH]2)CC1)n1cccn1 (stereo not drawn) [CBK285036] | 125.377 |
| CCCc1[nH]nc(O)c1Cc1ccc(Cl)cc1 [CBK075013] | 103.572 |
| CCOc1cc(CNc2nc[nH]n2)cc(Cl)c1OCc1ccccc1F [CBK288088] | 145.961 |
| O=C(NC1CCCCCC1)c1ccc(COCC(F)(F)C(F)F)cc1 [CBK059012] | 120.445 |
| CN(C)C(=O)CN1CCC2(C/C=C/COc3ccccc3C(=O)NC[C@@H](Cc3ccccc3)NC2=O)CC1 [CBK292185] | 105.597 |
| COc1cccc(/C=N/NC(=O)C(=O)NCc2ccccn2)c1O [CBK262097] | 100 |
| c1cncc(-c2cncc(NCC3CCOCC3)n2)c1 [CBK037195] | 203.466 |
| Cc1nc2ccccc2c(C)c1C(=O)OCc1nc(N)nc(N(C)C)n1 [CBK295627] | 136.322 |
| COc1cccc(C(=O)Nc2nc3ccccc3n2Cc2ccccc2)c1OC [CBK299811] | 98.2618 |
| Cc1c(S(=O)(=O)N2CCN(C)CC2)sc2ccc(C(C)C)cc12 [CBK170362] | 97.6065 |
| COC(=O)C1(Cc2cc(-c3ccc(F)cc3)no2)CCOCC1 [CBK285329] | 131.298 |
| C=CCn1c(SCC(=O)O)nnc1-c1ccc([N+](=O)[O-])cc1 [CBK262736] | 117.997 |
| Cc1ccc(-c2nnc(CNC(=O)C3(c4ccccc4)CC3)o2)s1 [CBK284642] | 114.065 |
| CCCCOc1ccc(-c2nnn(CC(=O)NCc3ccccc3)n2)cc1 [CBK068557] | 92.7471 |
| CC(C)(O)CCN(Cc1ccc(-c2ccc(S(C)(=O)=O)cc2)nc1)C1CCN(C(=O)OC(C)(C)C)CC1 [CBK167517] | 135.027 |
| CC(C)(C)c1oc(C(=O)O)cc1CN1CCCC1 [CBK287136] | 107.03 |

3 entries from above, ordered by length of the SMILES, falling.

| Compound | % of control remaining [%] |
| --- | --- |
| CC(C)(O)CCN(Cc1ccc(-c2ccc(S(C)(=O)=O)cc2)nc1)C1CCN(C(=O)OC(C)(C)C)CC1 [CBK167517] | 135.027 |
| CN(C)C(=O)CN1CCC2(C/C=C/COc3ccccc3C(=O)NC[C@@H](Cc3ccccc3)NC2=O)CC1 [CBK292185] | 105.597 |
| O=C(NC1CCCCCC1)c1ccc(COCC(F)(F)C(F)F)cc1 [CBK059012] | 120.445 |

Next part:

| Compound | % of control remaining [%] |
| --- | --- |
| N#Cc1nccnc1S(=O)(=O)CCO [CBK023595] | 132.064 |
| COc1cccc(CNCc2ccco2)c1OCc1ccccc1F [CBK270271C] | 111.518 |
| Cc1cc(-c2csc(CC(C)n3cc(Cl)cn3)n2)on1 (stereo not drawn) [CBK304700] | 103.324 |
| CC1CC(Nc2ccccc2)c2ccccc2N1C(=O)CCCC(=O)O (stereo not drawn) [CBK286960] | 111.604 |
| N#CCCN(C(=O)NC1CCc2ccccc21)C1CCCCC1 (stereo not drawn) [CBK156383] | 128.468 |
| Cc1ccnn1CCC(=O)NC1(c2ccccc2F)CCCC1 [CBK283691] | 140.25 |
| CN1CCCCCC1c1nc(-c2ccccc2)nn1CCCO (stereo not drawn) [CBK307653] | 126.363 |
| COc1nc(NCc2ccco2)nc(OC)n1 [CBK027479] | 100 |
| O=C(c1c[nH]c(C(=O)N2CCN(c3ccccn3)CC2)c1)c1ccc(Cl)cc1Cl [CBK107419] | 99.4865 |
| COc1cccc(C(=O)NC(=S)Nc2ccc(C(=O)O)c(Cl)c2)c1 [CBK265065] | 118.589 |
| CC(C)C(=O)Nc1cc2cccnc2nc1-c1ccc(N(C)C)cc1 [CBK073650] | 100 |
| CCn1nc(-c2ccc(Cl)cc2)c2c(=O)n(C)c(=O)[nH]c21 [CBK287845] | 107.005 |
| COc1ccc(CN2CCN(c3nccnc3OC3CCCCC3)CC2)cc1 [CBK082830T] | 105.423 |
| CCN(CCCNC(=O)c1cc(-c2cccnc2)nc2ccccc12)c1cccc(C)c1 [CBK294465] | 159.743 |
| O=c1cc(O)c2c(=O)[nH]c(=O)n(-c3ccccc3)c2[nH]1 [CBK287907] | 127.297 |
| O=C(Nc1ccccc1)Nc1ccc([N+](=O)[O-])cc1 [CBK016975] | 63.5484 |
| O=C1CN(C(=O)Nc2ccc(Cl)cc2)CCN1 [CBK155861] | 129.985 |
| O=C(Nc1ccc(F)cc1)c1ccccc1NS(=O)(=O)c1ccc(Br)cc1 [CBK045438] | 49.0267 |
| Cc1cccc(C(=O)Nc2nnc(-c3ccncc3)o2)c1 [CBK287430] | 125.364 |
| Cc1cc(C[C@@H]2COC[C@H]2NCc2ccccc2C(F)(F)F)on1 [CBK285464] | 146.667 |
| COc1cc(CN2CCNCC2)c2ccn(S(=O)(=O)c3ccccc3C#N)c2c1 [CBK144486T] | 95.4748 |
| CS(=O)(=O)N1CC2(CCN(CC3COc4ccccc4O3)CC2)c2ccccc21 (stereo not drawn) [CBK115461T] | 83.6378 |
| CCOC(=O)C1CCCN(C(=O)Cn2c(C)nc3ccccc3c2=O)C1 (stereo not drawn) [CBK306150] | 122.392 |
| CCOc1ccc(S(=O)(=O)N2CCCN(Cc3ccc(F)cc3F)CC2)c2cccnc12 [CBK062757] | 71.3177 |
| Cc1ccc(NC(=O)CSc2nnc(N)[nH]2)cc1 [CBK034301] | 126.229 |

2 entries drawn at random from the list so far, as already listed:

| Compound | % of control remaining [%] |
| --- | --- |
| CN1CCCCCC1c1nc(-c2ccccc2)nn1CCCO (stereo not drawn) [CBK307653] | 126.363 |
| Cc1cccc(C(=O)Nc2nnc(-c3ccncc3)o2)c1 [CBK287430] | 125.364 |
